Assay results as given in article PMC11236980.
Results are given in words; binding and its absence hold for the method and conditions named. Binding seen in cells or lysates may run through a third protein. Some binding calls cover weakened binding; strength is not graded here.

Amino acid sequences for entries named in this document (tags omitted).
UniProt O75417: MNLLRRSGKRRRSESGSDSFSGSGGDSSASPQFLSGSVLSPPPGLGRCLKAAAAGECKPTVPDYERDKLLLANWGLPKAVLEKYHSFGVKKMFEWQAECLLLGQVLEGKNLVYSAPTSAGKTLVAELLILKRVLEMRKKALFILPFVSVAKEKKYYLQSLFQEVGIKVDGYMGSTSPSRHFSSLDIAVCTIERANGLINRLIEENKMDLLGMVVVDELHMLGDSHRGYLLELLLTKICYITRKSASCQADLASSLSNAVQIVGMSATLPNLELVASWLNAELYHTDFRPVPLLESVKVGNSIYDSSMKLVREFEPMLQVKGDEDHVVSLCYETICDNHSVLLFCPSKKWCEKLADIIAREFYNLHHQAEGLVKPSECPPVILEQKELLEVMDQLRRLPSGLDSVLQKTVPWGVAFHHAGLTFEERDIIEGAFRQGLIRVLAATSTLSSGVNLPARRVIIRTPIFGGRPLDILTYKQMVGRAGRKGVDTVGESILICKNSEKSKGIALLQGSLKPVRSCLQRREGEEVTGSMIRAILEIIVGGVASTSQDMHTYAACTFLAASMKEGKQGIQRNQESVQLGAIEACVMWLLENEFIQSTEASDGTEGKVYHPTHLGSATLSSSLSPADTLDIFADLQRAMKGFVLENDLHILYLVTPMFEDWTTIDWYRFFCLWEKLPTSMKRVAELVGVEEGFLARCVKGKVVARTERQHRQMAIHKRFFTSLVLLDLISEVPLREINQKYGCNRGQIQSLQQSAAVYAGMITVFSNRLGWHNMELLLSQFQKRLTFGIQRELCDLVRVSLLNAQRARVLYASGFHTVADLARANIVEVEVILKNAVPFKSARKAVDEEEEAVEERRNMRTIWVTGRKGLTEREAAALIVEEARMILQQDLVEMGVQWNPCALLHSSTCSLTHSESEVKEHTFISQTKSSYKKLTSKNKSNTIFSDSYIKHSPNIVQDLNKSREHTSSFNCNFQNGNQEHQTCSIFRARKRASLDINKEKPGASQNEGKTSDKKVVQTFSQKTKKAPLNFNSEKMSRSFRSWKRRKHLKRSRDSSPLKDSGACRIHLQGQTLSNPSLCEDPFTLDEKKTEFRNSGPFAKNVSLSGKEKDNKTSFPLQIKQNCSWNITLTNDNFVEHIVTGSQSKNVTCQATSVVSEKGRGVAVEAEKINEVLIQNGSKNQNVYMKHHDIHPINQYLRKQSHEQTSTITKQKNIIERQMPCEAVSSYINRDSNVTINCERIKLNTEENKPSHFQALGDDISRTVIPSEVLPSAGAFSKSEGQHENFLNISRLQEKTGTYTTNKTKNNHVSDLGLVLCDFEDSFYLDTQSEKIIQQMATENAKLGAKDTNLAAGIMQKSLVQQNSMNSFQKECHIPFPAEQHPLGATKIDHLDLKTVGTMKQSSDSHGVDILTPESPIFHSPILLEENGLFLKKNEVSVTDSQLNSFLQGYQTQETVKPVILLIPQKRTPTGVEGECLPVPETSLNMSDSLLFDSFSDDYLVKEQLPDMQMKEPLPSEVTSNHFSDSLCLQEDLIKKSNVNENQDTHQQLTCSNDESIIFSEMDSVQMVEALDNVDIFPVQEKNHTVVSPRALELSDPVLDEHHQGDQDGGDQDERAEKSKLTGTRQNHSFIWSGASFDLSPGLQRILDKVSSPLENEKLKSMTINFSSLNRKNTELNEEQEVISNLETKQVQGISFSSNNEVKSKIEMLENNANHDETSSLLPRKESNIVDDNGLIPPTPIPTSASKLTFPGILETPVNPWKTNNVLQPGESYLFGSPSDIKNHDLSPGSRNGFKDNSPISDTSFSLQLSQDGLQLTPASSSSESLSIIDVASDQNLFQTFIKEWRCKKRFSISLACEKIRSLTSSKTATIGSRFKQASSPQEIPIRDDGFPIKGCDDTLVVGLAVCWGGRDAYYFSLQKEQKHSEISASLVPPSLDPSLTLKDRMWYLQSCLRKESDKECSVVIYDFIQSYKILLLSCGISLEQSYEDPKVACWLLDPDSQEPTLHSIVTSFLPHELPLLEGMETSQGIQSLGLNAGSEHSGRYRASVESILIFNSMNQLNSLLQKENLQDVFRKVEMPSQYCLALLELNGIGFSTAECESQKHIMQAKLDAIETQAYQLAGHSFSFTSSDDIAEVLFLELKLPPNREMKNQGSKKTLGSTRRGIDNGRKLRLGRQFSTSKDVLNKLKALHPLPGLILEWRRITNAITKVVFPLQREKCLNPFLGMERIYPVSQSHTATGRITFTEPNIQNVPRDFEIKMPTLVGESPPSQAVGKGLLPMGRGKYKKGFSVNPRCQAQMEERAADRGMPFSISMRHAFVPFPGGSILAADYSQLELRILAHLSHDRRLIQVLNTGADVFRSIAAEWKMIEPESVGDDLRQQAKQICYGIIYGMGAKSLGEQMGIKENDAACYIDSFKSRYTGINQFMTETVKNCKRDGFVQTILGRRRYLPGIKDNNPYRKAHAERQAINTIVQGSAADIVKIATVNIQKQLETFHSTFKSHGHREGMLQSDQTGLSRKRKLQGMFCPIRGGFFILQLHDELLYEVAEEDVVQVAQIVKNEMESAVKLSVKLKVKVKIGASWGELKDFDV
UniProt P09874: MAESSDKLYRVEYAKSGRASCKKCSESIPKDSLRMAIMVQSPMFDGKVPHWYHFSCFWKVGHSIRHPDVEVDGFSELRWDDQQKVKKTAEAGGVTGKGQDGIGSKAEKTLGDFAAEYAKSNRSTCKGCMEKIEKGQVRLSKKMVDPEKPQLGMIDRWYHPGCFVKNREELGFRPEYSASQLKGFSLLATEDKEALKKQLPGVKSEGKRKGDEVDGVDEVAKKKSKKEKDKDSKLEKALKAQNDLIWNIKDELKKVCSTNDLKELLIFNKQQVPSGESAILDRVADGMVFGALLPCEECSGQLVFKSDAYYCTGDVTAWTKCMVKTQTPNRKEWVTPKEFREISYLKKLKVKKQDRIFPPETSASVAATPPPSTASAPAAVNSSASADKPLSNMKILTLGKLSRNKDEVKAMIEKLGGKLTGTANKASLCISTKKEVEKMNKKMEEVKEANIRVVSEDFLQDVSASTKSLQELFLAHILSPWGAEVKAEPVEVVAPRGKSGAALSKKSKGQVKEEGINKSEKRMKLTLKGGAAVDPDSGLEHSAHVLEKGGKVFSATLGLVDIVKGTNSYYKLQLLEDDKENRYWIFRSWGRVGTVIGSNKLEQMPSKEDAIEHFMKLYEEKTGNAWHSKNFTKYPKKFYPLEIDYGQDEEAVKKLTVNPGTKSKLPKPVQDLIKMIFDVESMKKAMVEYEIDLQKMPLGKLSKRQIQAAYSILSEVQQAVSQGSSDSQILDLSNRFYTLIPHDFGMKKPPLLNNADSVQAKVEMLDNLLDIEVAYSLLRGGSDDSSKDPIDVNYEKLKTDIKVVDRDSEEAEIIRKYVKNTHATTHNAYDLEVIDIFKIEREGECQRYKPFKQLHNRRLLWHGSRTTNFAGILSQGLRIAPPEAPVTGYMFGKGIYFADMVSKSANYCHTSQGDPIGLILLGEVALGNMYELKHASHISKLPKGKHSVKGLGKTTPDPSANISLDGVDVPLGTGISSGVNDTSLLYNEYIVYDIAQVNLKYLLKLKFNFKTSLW

Tests used:
[1] = molecular target: Polθ-FLAG-HA fusion protein (DNA polymerase theta) (human) (UniProt O75417); assay: co-IP; anti-HA and anti-γH2AX immunoprecipitates from chromatin extracts (sonicated) of U2OS wild-type and HPF1 KO cells expressing Polθ-FLAG-HA, 0-120 min after 10 Gy irradiation, with or without PARP1 inhibitor or PARG inhibitor; Western blot
[2] = molecular target: Polθ-FLAG-HA fusion protein (DNA polymerase theta) (human) (UniProt O75417); assay: co-IP; lysate (IP lysis buffer) of 293T cells transiently expressing Polθ-FLAG-HA; anti-HA magnetic beads and anti-PARP1, 16-18 h at 4 °C; Western blot with anti-FLAG and anti-PARP1
[3] = molecular target: Polθ-FLAG-HA fusion protein (DNA polymerase theta) (human) (UniProt O75417); assay: co-IP; anti-HA immunoprecipitates from total cell extracts of U2OS-EJ2-GFP cells expressing Polθ-FLAG-HA, 0, 20, 60 and 120 min after 10 Gy irradiation; Western blot

binding [1]: binds
binding [2]: binds
binding [3]: binds
Substance: Poly(ADP-ribose) polymerase 1 (PARP1) (from UniProt P09874 1-1014)
